## Library screen at single concentrations

Amino acid sequences for entries named in this document (tags omitted). Residues count along the entry.
UniProt Q8IDJ8, 1-583: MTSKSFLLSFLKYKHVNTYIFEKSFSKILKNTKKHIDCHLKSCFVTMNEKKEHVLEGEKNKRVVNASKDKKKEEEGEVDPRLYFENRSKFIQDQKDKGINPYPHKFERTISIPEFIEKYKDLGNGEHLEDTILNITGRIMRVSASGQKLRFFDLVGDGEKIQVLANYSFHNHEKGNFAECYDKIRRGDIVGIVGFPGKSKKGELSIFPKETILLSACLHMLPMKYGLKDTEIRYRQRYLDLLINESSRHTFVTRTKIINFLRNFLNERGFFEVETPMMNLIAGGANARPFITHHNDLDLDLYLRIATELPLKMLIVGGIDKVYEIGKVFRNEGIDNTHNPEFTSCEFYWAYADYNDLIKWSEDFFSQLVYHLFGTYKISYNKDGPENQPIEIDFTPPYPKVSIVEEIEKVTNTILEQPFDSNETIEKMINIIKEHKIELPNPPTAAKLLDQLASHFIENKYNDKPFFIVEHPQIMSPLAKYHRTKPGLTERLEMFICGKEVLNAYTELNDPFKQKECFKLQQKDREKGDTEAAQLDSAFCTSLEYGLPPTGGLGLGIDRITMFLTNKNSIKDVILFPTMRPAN

Each number is a percent effect as filed.
How 0% and 100% were set is not recorded. Most values in the screen are low, and negative values occur.
The compounds are a random part of those screened.

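Enzyme assay of the cytosolic lysyl-tRNA synthetase in 384-well plates, read by luminescence. Target: Lysine-tRNA ligase, Plasmodium falciparum 3D7 (UniProt Q8IDJ8). Tested at 30 µM. Higher reads as stronger inhibition, judged from the few compounds that gave an IC50. About 69,000 compounds were tested under these conditions; 0.071% (about 49) showed 50% or more at least once.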

compound | effect
Cc1ccc(S(=O)(=O)NC(=O)COc2ccc(CC#N)cc2)s1 | -0.2987
Cc1nnc2n1CCN(CCOc1ccccc1)C2 | 2.613
CC(C)Oc1cccc(F)c1C(C(=O)O)N1CCCC1 (centres unmarked) | 9.295
CN(C)CCCN(Cc1cnn(C)c1)Cc1ccco1 | 5.717
O=S1(=O)NC2(CCCN(CCc3ccccc3)C2)COc2ccccc21 (centres unmarked) | 0.1634
CCOC(=O)NCCNC(=O)c1cc(Br)cn1C(C)C | 0.4432
COCCN(Cc1ccc(C)cc1)Cc1nccn1C | -1.722
Cc1cccc(C2(CNC(=O)CO)CCCC2)c1 | -2.71
CC(=O)N1CC[C@@]2(O)CCCC[C@H]2[C@@H]1c1ccc2c(c1)OCO2 | -4.256
Cc1cc(NC(=O)NCCc2cccnc2)n(C)n1 | 4.467
CCC(CC)(CNC(C)=O)NC(C)c1ccccc1 (centres unmarked) | -1.963
COc1cc(Cl)c(NCc2c(C)noc2C)cc1OC | 7.16
CNC(=O)COC1COC2(CCN(Cc3ccncc3F)CC2)C1 (centres unmarked) | 4.672
Cn1cnnc1C1CCCN(C(=O)c2cc(C3CC3)on2)C1 (centres unmarked) | 0.8068
CC(=O)N1C[C@@H]2CC[C@H](C1)N(S(=O)(=O)c1ccc(F)cc1Cl)C2 | 6.66
CCOc1ncnc2c1CCN(S(=O)(=O)C1CC1)CC2 | -5.376
O=C(c1cccc2c1OCO2)N1CCCC(n2cccn2)C1 (centres unmarked) | 3.66
N#CCCN(CC(F)(F)F)C(=O)c1cc(-n2cccn2)ccn1 | -2.844
CS(=O)(=O)N1CC2(CCN(C(=O)c3ccncc3)CC2)c2ccccc21 | 4.691
CN1CCC(Cc2noc(-c3cn(Cc4ccc(F)cc4)nn3)n2)CC1 | 2.468
CCCn1cnnc1CN(C)C(=O)C1CCC(=O)N(C2CCCC2)C1 (centres unmarked) | 2.714
CC(=O)N1CC2(CCN(c3ccc4ccccc4n3)CC2)CC1C(=O)O (centres unmarked) | -4.884
CN1CCN(C(=O)c2cnc3c(cnn3C3CCCC3)c2)CC1 | 4.966
N#Cc1cccnc1N1CCCC(CO)(Cc2ccccc2F)C1 (centres unmarked) | 1.405
CCn1c(CN2CCC(O)(c3ccc4c(c3)OCO4)CC2)cnc1SC | 1.68
COC(=O)c1cc(NCC(=O)NC(N)=O)cc(C(F)(F)F)c1 | 2.085
Cn1cc2c(n1)C(COCC1CC1)CN(Cc1ccsc1)C2 (centres unmarked) | -0.3019
CCS(=O)(=O)NCCNCc1cc(F)ccc1Br | -7.499
O=C1Nc2ccccc2NC12CCN(c1cccc(C(F)(F)F)n1)CC2 | 4.157
CC(C)CC(CC(C)C)NC(=O)c1ccn(C)c(=O)c1 | 5.421
CCCn1cc(NC(=O)c2cccc(CN3CC[C@H](O)C3)c2)nn1 | -0.3823
COCc1ncc(CN2CCC3(CCNC(=O)CC3)CC2)cn1 | 2.321
CC1(c2ncc(CN(CC(=O)O)Cc3ccccc3)cn2)CCCCO1 (centres unmarked) | 0.5098
CCCNC(=O)Nc1cc2c(cc1SC)OCCO2 | 0.3251
CC(C)c1nnc2n1CCN(Cc1nc3c(F)cccc3[nH]1)C2 | 2.733
COc1ccccc1CN1C(=O)O[C@@H]2CN(c3nc(C)cnc3C)C[C@@H]21 | -1.087
OC(COc1ccc2c(c1)OCO2)CN1CC(n2cccn2)C1 (centres unmarked) | 2.032
Cc1ccc(C(C)NC(=O)N2CCNC(=O)CC2)cc1F (centres unmarked) | 4.721
O=C(Nc1ccc(F)cc1)N(CCC(F)(F)F)C[C@H](O)CO | -1.56
CC(C)OC(=O)N1C[C@H]2CC[C@@H]1CN(Cc1cccnc1)C2 | -0.8054
Cc1occc1C(=O)NC1CCN(C(=O)Nc2cccnc2)CC1 | 3.331
CC1=N[C@@]2(CC[C@@H]3CN(CC4CC4)C[C@@H]32)C(=O)N1CC(C)C | 0.627
O=C(Nc1ccc2c(ccn2CCN2CCOCC2)c1)c1ccccn1 | 2.186
CCc1ncc(S(C)(=O)=O)c(C2CCCNC2)n1 (centres unmarked) | 14.12
O=C([C@H]1CC[C@@H]2[C@@H](CCN2Cc2nccs2)O1)N1CCOCC1 | 1.106
CC(C)NC(=O)N1CCN(CC2CC2)CC2(CNC(=O)C2)C1 (centres unmarked) | 5.558
CCC(NC(=O)NCc1cc(Cl)ccc1OC)c1noc(C)n1 (centres unmarked) | -7.17
CCOC(=O)C(C)NC(=O)N1CCN(c2nc3ccccc3n2C)CC1 (centres unmarked) | 6.036
CC(C)n1ccc(C(=O)N2CCCC(n3cncn3)C2)n1 (centres unmarked) | 0.4408
O=C(c1ccc(Cl)cc1)N1CCc2nc(C(=O)N3CCCC3)sc2CC1 | 2.856
CCOCC(O)CN1CCN(C(=O)c2ccncc2)CC1 (centres unmarked) | 6.846
CC(=O)Nc1nc2c(s1)C1(CCN(C)CC1)Nc1ccccc1S2 | 3.195
Cn1nc(COc2cncnc2)c2c1CCN(Cc1ccccn1)C2 | 1.825
COc1ccc2c(c1)OCC(Cc1ccc(C)nc1N)C2 (centres unmarked) | -3.279
O=C(NCc1ccccn1)NC1CCCN(c2ncccn2)C1 (centres unmarked) | 3.807
CC(=O)Nc1ccc2nc(CN(C)Cc3noc(C)n3)ccc2c1 | 5.987
CS(=O)(=O)Cc1ccc(CNc2ncc(C#N)cc2Cl)cc1 | 5.252
O=C(Nc1cccc(CNCc2ccsc2)c1)C1CC1 | -1.092
CC(Cn1cncn1)NCc1ccc2nonc2c1 (centres unmarked) | 13.87
Cc1nn(C)c2c(N3CCN(C(=O)C4CCC4)CC3)ncnc12 | 9.504
O=C(NCCn1cccc1)C(c1cccnc1)N1CCCC1 (centres unmarked) | 1.953
Cc1nc(CN2CCCC2Cn2cncn2)nc2ccccc12 (centres unmarked) | 8.797
O=C(Cn1ccc2ccccc21)NCc1ccc(C(=O)O)cc1 | 10.6
CCN(CC)Cc1ccccc1NC(=O)N(C)Cc1ccc(OC)cc1 | -0.8596
Cc1cnn(C2CCCN(C(=O)c3c(C)oc4nc[nH]c(=O)c34)C2)c1 (centres unmarked) | 3.917
COC[C@@]12CCO[C@@H]1CCN(C(=O)CCc1ccccc1Cl)C2 | 3.719
CCc1c(C)nn(CCNC(=O)Cc2csc(C)n2)c1C | 0.746
COc1nn(C)c2c1CCCN(C(=O)c1cccs1)C2 | 0.6416
CS(=O)(=O)N1CCC(C(=O)NC(Cc2ccsc2)c2cccnc2)CC1 (centres unmarked) | -1.978
CC(C)c1nccn1C1CCCN(C(=O)c2cccc3[nH]ncc23)C1 (centres unmarked) | 15.94
Cc1nc(CNC(C)c2ccc(OCC(=O)NC3CC3)cc2)cs1 (centres unmarked) | 7.452
CCOc1ccc(N(C)S(=O)(=O)c2c[nH]c(C(C)C)n2)cc1 | 1.468
CCSCCN1CCCN(S(C)(=O)=O)CC1 | 2.44
NC(=O)c1ccc(C(=O)N(Cc2ccc(O)cc2)CC2CC2)cc1 | 0.3874
CC(O)CN1CCN(C(=O)CN(C)c2cnccn2)CC1 (centres unmarked) | 1.11
COc1ccccc1NCC(=O)NCc1scnc1C | 2.315
O=C(c1cocn1)N1CCC2(CC1)COC(COCc1ccccn1)C2 (centres unmarked) | 3.222
c1cc2c(cc1CN1CCN(Cc3noc(C4CC4)n3)CC1)OCO2 | -0.1408
O=C1CSc2ccccc2N1CC(=O)N1CCCCC1c1nccs1 (centres unmarked) | -0.5835
COc1ccccc1OCc1cc(C(=O)N2CCCCCC2CO)n[nH]1 (centres unmarked) | 0.4455
CC(=O)NCCc1ncnn1-c1ccc(F)c(Cl)c1 | -4.595
COCC(C)NC(=O)CCCn1cnc2ccccc2c1=O (centres unmarked) | 0.8237
Cc1cccc(-c2c[nH]c(C3CCCN3C(=O)C3CCOCC3)n2)c1 (centres unmarked) | 1.807
CCOCC(=O)NCCn1ccc(-c2ccccn2)n1 | 2.463
Fc1ccc2[nH]c([C@H]3CCN(C4CCOCC4)C3)nc2c1 | -1.822
Cc1cc(C)n(-c2cccc(NC(=O)N3CCC[C@@H]3CO)c2)n1 | 2.485
FC(F)(F)c1cc(NCCCn2cccn2)nc(-c2cccnc2)n1 | 3.014
COCc1nc(CNC2CCSC2)no1 (centres unmarked) | 5.819
CN(C(=O)c1ccccn1)c1nc2c(s1)CCc1c-2cnn1C | 0.9645
CC(NC(=O)NCCOc1ccc(Cl)cc1)c1nncn1C (centres unmarked) | 27.05
CN1CCCCC1CCC(=O)NCCSc1cnn[nH]1 (centres unmarked) | 2.617
Cc1cccc(S(=O)(=O)NC2CCN(CC(F)(F)F)C2)c1 (centres unmarked) | 4.025
CC(C)(NCCOc1ccc(CC#N)cc1)c1nccs1 | 5.594
Cc1cccc(-c2noc([C@@H]3C[C@@H](O)CN3C3CCOCC3)n2)c1 | 2.396
c1cncc(N2CC[C@@H]3CN(CC4CC4)C[C@@H]3C2)c1 | 2.095

The first 10 entries again:

* Cc1ccc(S(=O)(=O)NC(=O)COc2ccc(CC#N)cc2)s1 | -0.2987%
* Cc1nnc2n1CCN(CCOc1ccccc1)C2 | 2.613%
* CC(C)Oc1cccc(F)c1C(C(=O)O)N1CCCC1 (centres unmarked) | 9.295%
* CN(C)CCCN(Cc1cnn(C)c1)Cc1ccco1 | 5.717%
* O=S1(=O)NC2(CCCN(CCc3ccccc3)C2)COc2ccccc21 (centres unmarked) | 0.1634%
* CCOC(=O)NCCNC(=O)c1cc(Br)cn1C(C)C | 0.4432%
* COCCN(Cc1ccc(C)cc1)Cc1nccn1C | -1.722%
* Cc1cccc(C2(CNC(=O)CO)CCCC2)c1 | -2.71%
* CC(=O)N1CC[C@@]2(O)CCCC[C@H]2[C@@H]1c1ccc2c(c1)OCO2 | -4.256%
* Cc1cc(NC(=O)NCCc2cccnc2)n(C)n1 | 4.467%

From ChEMBL document CHEMBL3988442, “University of Dundee, Small-Polar-MMV Screening Library” (2021).